# Results of single-concentration screens

Data taken from ChEMBL document CHEMBL3988442, “University of Dundee, Small-Polar-MMV Screening Library” (2021).

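Whole-parasite assay of Trypanosoma brucei over 72 hours; the read-out is not stated. Tested at 30 µM. The record gives no direction; compounds that gave an IC50 in retests scored well above the rest, so higher reads as stronger inhibition. Values scatter widely below zero; nearly all retest evidence comes from the higher of the two concentrations used. Size under these conditions: about 64,000 compounds, about 940 of them at 50% or above in at least one test.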

Results are given as percent effect. The record does not define 0% and 100%; most values in the screen are far below 50% and negative numbers occur (in some assays of this library far below -100). The compounds are a random part of those screened.

structure,percent effect
CCCS(=O)(=O)NC(C)c1cccc(-n2cccn2)c1 (centres undefined),-29.38
CCc1nc2n(n1)CC(NCc1ncc(-c3ccccc3)o1)CC2 (centres undefined),-11.37
CCc1cc(CNC(=O)N2Cc3ccccc3N(C)CC2C)on1 (centres undefined),-15.29
Oc1cc(C2CCCCN2C2CCCC2)nc(-c2ccncc2)n1 (centres undefined),-15.12
COCCCN1CCC(N(Cc2noc(C)n2)C(C)=O)C1 (centres undefined),-18.85
O=c1n(CCSCc2ccccc2Cl)nc2ccccn12,24.8
Nc1nc(N2CCCCCC2)ncc1C(=O)NCc1ccc(F)c(Cl)c1,-56.09
c1ccc(-c2nc(CNC3CCCN(c4cccnn4)C3)no2)cc1 (centres undefined),-28.59
COCCN1CCN(Cc2ccoc2)Cc2cccnc21,26.91
O=C(NCc1csc2ccccc12)NCC1(O)CCSC1 (centres undefined),2.491
Cc1ccccc1NCc1nc2n(n1)CCCCC2,-24.07
Cn1cnnc1CNC(=O)C1CCCN(Cc2ccccc2)C1 (centres undefined),-83.28
O=C(O)C(F)(F)F.[H][C@@]12CCC(=O)N(CCOC)[C@]1([H])CCN2Cc1cccc(C#N)c1,-247.8
O=C(O)C(F)(F)F.O=C(c1ccoc1)N1CCC2(CCC(=O)N2Cc2ccncc2)CC1,-33.82
O=C(O)C(F)(F)F.[H][C@@]12CN(Cc3cccs3)C[C@]1([H])CN(C(=O)c1cccn1C)C2,-16.86
O=C(O)C(F)(F)F.[H][C@@]12CCN(Cc3ccc(F)cc3)[C@]1([H])CC[C@@H](C(=O)NCc1ccco1)O2,-35.19
O=C(O)C(F)(F)F.[H][C@@]12CN(Cc3ccco3)CCO[C@]1([H])CN(S(=O)(=O)CCC)C2,-97.28
CCOc1ccc(C(C)Nc2ncnc3c2CCNC3)cc1OCC (centres undefined),2.402
Cc1ccccc1-c1noc(-c2ccc(NCC3COCCO3)nc2)n1 (centres undefined),-4.86
Cc1ncc2c(n1)CN(Cc1nnc(-c3occc3C)o1)CC2,20.89
CCn1c(C)cc(C(=O)N2CCCC(C(=O)c3nccn3C)C2)c1C (centres undefined),24.09
COc1ccc(OCC(=O)NS(=O)(=O)c2cc(C)ccc2C)cc1,14.18
O=C1CCCN1C1CCCN(CCOc2ccc(F)cc2)C1 (centres undefined),-63.88
CC(C)OCCC(=O)Nc1cccc(N2CCN(CC3CC3)CC2)c1,-9.951
CCOC(=O)C1CCN(C(=O)CN2CCCC2c2ccsc2)CC1 (centres undefined),-18.84
O=C1N(c2ccccc2)Cc2n[nH]c(=O)n21,-43.62
CN1CCc2ccc(NCc3cccs3)cc2C1=O,-39.62
Cc1ccc(CN2Cc3nnn(C)c3C(COCC3CC3)C2)s1.O=C(O)C(F)(F)F (centres undefined),-51.6
CC(C)n1ccnc1CN1CCCN(C(=O)CC2C=CCC2)CC1 (centres undefined),-5.547
Cc1ccc(CN(C)C(=O)CNC(C)(C)c2noc(C(C)(C)C)n2)o1,-35.56
COCC(=O)N1CCC(c2ccc(OC)cc2)C1 (centres undefined),-0.7201
Cc1ccc(NC(=O)Cn2ccc3c(=O)n(C)ccc32)cc1F,1.346
COCC(=O)N1CCC(C(=O)N(C)CCCc2nccn2C)CC1,-30.8
CCNC(=O)NC(=O)CNc1cc(C#N)ccc1OCC,-6.445
CN(Cc1ncnn1C)c1ccnc(Cc2ccccc2)n1,-20.66
O=C(NCc1ccc(F)cc1)NCC(O)(c1ccco1)C1CC1 (centres undefined),-24.12
CN(Cc1ncc(-c2ccccc2)o1)C1CCCN(c2cccnn2)C1 (centres undefined),9.146
COCc1nc(N(C)C)ncc1C(=O)NC(C)c1ccccc1 (centres undefined),-21.32
CCOc1ccc(S(=O)(=O)C(C)C(=O)Nc2cc(C)no2)cc1 (centres undefined),-8.245
[H][C@]12CN(C(=O)c3cnn(C)c3)CC[C@@]1(O)CCN(C(=O)C1CCC1)C2,-161.9
CC(C)(CNC(=O)C1(c2cccc(Br)c2)CCOCC1)C(=O)O,1.858
Cc1cc(CN(C)CC2CCCN(CCc3ccc(Cl)cc3)C2)[nH]n1 (centres undefined),19.55
O=C(NCCN1CCOCC1)c1ccnn1-c1ccc2ccccn12.O=C(O)C(F)(F)F,-57.23
CN1CC(=O)N(c2ccsc2)CC12CCN(S(=O)(=O)C1CC1)C2.O=C(O)C(F)(F)F (centres undefined),-29.86
NC(=O)CN(C(=O)C1Cc2cc(Cl)ccc2O1)C1CCCC1 (centres undefined),-7.317
Cc1nc2c(c(NCC(=O)NC(C)C)n1)Cc1ccccc1OC2,-37.99
Cc1cc(C)n(CCN2CCC(N(C)Cc3nnc(C)n3C)C2)n1 (centres undefined),-27.37
O=C(c1ccncn1)N1CCC[C@]2(C[C@H](OCC3CC3)CO2)C1,-104
O=C(NCc1ccnc(OCC2CC2)c1)C1COc2ccccc2O1 (centres undefined),-50.8
[H][C@@]12C[C@@H](O)CN1C[C@H](Cc1ccccc1)N(Cc1cnn(C=C)c1C)C2,-15.64
CC(=O)N1CCN(C(=O)CCc2cc(Br)cs2)CC1,0.9029
O=C(Cc1ccc2c(c1)CCCC2)N[C@@H]1CC[C@@H](n2ccnc2)[C@@H]1O,-22.65
CN(C)CCNC(=O)c1ccc2c(-c3nccs3)noc2c1,-14.1
[H][C@]12CC[C@](C(=O)N3CCC(n4cc(CO)nn4)CC3)(C1)C(=C)C2(C)C,-24.17
Cc1cccc(NC(=O)c2ccc(-n3cncn3)nn2)n1,3.729
COCC(=O)N(C)Cc1nc(N2CCCC2)ncc1-c1ccncc1.Cl,15.78
COCCCNC(=O)NCc1ccc(C)cc1,18.76
CSCCN(C)C(=O)C1(c2ccc(F)cc2F)CCOCC1,-48.85
CC(c1nccs1)N(C)C(=O)c1cc(CN(C)Cc2ccccc2)on1 (centres undefined),-10.82
Cc1ncc(CNC(=O)CCc2c(C)noc2C)c(C2CCCN2C)n1 (centres undefined),0.4142
CCC(=O)N1CCC(c2nnc(Cn3cccn3)n2C2CC2)CC1,-10.39
CN1CCCCC1c1cncc(N2CCC(O)CC2)n1 (centres undefined),4.702
CC(=O)NCC1CCCN(C(=O)Cc2c(C)noc2C)C1 (centres undefined),-28.95
Cc1nc(C(=O)N2CCN(S(C)(=O)=O)CC2)c(-c2ccccc2)s1,-20.45
Cn1ccnc1CN1CCC2(CC1)COCCN(S(C)(=O)=O)C2.O=C(O)C(F)(F)F,-1.779
Cc1n[nH]c(C2CN(C(=O)c3cnc[nH]3)CCO2)n1 (centres undefined),-1.66
CCn1nnnc1-c1cccc(NC(=O)COC2CCCC2)c1,-40.44
Cc1nc(-c2ccccc2)cc(C2CCNCC2)n1.Cl,-24.18
Cc1cc(C)c2ncn(CCC(C)O)c(=O)c2c1 (centres undefined),-26.09
CCSCCNc1cc(C)nc2c(C)c(C)nn12,1.988
Cc1nc(N(C)C)nc(C)c1NS(=O)(=O)c1ccccc1Cl,-8.741
CC1N(c2cnn(C)c2)C(=O)COC12CCN(CC1CC1)CC2.O=C(O)C(F)(F)F (centres undefined),-17.93
CN(C)C(=O)Cn1c2c(ccc1=O)CCN(Cc1cnn(C)c1)CC2.O=C(O)C(F)(F)F,-19.86
OC1CCCN(Cc2cn(CC3CCN(C4CCSCC4)CC3)nn2)C1 (centres undefined),-23.92
O=C(c1ccco1)N1CC(S(=O)(=O)c2ccc(Cl)cc2)C1,-60.03
CC1CN(C)CCN1C(=O)c1cnc2c(cnn2C2CCCC2)c1 (centres undefined),17.09

The first 6 entries again:

structure	percent effect
CCCS(=O)(=O)NC(C)c1cccc(-n2cccn2)c1 (centres undefined)	-29.38
CCc1nc2n(n1)CC(NCc1ncc(-c3ccccc3)o1)CC2 (centres undefined)	-11.37
CCc1cc(CNC(=O)N2Cc3ccccc3N(C)CC2C)on1 (centres undefined)	-15.29
Oc1cc(C2CCCCN2C2CCCC2)nc(-c2ccncc2)n1 (centres undefined)	-15.12
COCCCN1CCC(N(Cc2noc(C)n2)C(C)=O)C1 (centres undefined)	-18.85
O=c1n(CCSCc2ccccc2Cl)nc2ccccn12	24.8